Reference: PubChem BioAssay (NCATS)
The inconclusive results got no clear call from the source; some entries with a clear call stand among them for comparison. Potencies of inconclusive entries are doubtful fits and often do not repeat. Activity calls are given as the source filed them. Calls follow the shape of the dose curve; as a rule, active = well fitted inhibition curve with a large enough effect; inconclusive = small, poorly fitted or top-dose-only effect; inactive = flat fitted curve, though single readings scatter.
Potency is read from the fitted curve at half-maximal effect.

Each compound was assayed on NAD(P)H diaphorase (Clostridium kluyveri) (assay: Diaphorse counterscreen qHTS: Assay Interference Panel against the NCATS CANVASS Library (AID 1347362; as to activity change, negative = inhibition: 0% is about no effect)). Details: Diaphorase enzyme, resazurin to resorufin fluorescence; series mostly up to 57.5 µM; activity change, negative = inhibition: at the top concentration.
Excerpt: Natural products and their derivatives continue to be wellsprings of nascent therapeutic potential. However, many laboratories have limited resources for biological evaluation, leaving their previously isolated or synthesized compounds largely or completely untested. To address this issue, the Canvass library of natural products was assembled (https://tripod.nih.gov/canvass), in collaboration with academic and industry researchers, for quantitative high-throughput screening (qHTS) across a diverse set of cell-based and biochemical assays. The pure (>85% purity by liquid chromatography/mass spectrometry [LC/MS]) Canvass library of 346 natural products were submitted by 45 academic laboratories and companies around the world. We collected pure natural products to circumvent deconvolution and structure elucidation due to time and resource limitations. The library was formatted into 1536-well plates and evaluated in 50 qHTS (in an 11-pnt concentration series) bioassays with broad scope of disease-relevant mechanisms. The resulting data set from 50 different assays was then systematically analyzed to identify overall trends and specific natural products with interesting biological activities. Reported herein are the results of each individual qHTS and their corresponding assay protocol. This assay determines potential interactions with a common fluorescent coupling enzyme, NAD(P)H-Diaphorase, to identify possible false positives in future assays. The assay measures the conversion of resazurin to fluorescent resorufin, to identify compounds that inhibit the activity of diaphorase. National Center for Advancing Translational Sciences (NCATS), Rockville, MD National Institute of Health (NIH), Bethesda, Maryland
Assay Interference counterscreen protocol 1. In a 1536 well, black solid bottom, medium binding plates (Corning 7494), 3 uL of diaphorase from Clostridium kluyveri in PBS + 0.01% Tween-20 was dispensed into columns 2 to 48, rows 1 to 32 using the Bioraptr dispenser. PBS-T solution was dispensed in column 1, rows 1 to 32 for control purposes. 2. Compounds were pin transferred (~23 nL volume) via Wako Pin-tool (Wako Automation, Richmond VA) equipped with a 1536 pin head. The assay plates were treated with compounds in a concentration series with a final concentration range of 0.2 nM to 128 uM. 3. PTC was used as a control (25 uM, n = 32, column 2, row 1-32) at a final concentration of 114.5 nM and was pin transferred via Wako Pin-tool equipped with a 1536 pin head. 4. The assay plates were incubated in the dark for 15 minutes at room temperature. 5. One microliter of 4x detection reagent (40 uM Resazurin + 40 uM NADH in PBS-T) was then added to the assay plates (column 1-48, rows 1-32) for a final assay volume of 4 uL. 6. The assay plates were further incubated in the dark for 5 minutes at room temperature. 7. Fluorescence signal was acquired via the ViewLux plate reader (PerkinElmer) using an excitation filter 525/20, emission filter 598/25; 1000 light energy, 2 second exposure, 2x binning settings.
With `NCCc1c[nH]c2ccc(O)cc12` the Potency was inconclusive: 4.84 µM [inhibitor, partial curve]. In the case of `C=C(C)[C@H]1C(=O)c2c3c(cc4c5c(n1c24)[C@@]1(C)[C@@H](CC[C@H]2[C@](C)(/C=C/C=C(\C)C(=O)O)[C@@H](O)CC[C@@]21C)C5)C1=CC(C)(C)OC(C)(C)[C@H]1[C@@H]3O`, the Potency is reported as inconclusive: 27.2 µM [inhibitor, partial curve]. `COC1=C(C2=C(OC)C(=O)c3cc4c(c(O)c3C2=O)C(=O)O[C@H](C)C4)C(=O)c2c(cc3c(c2O)C(=O)O[C@H](C)C3)C1=O` was tested, and the Potency was active: 1.45 µM. With `COc1ccc2c(c1)[nH]c1c(C)nccc12` the Potency was inconclusive: 62.7 µM [inhibitor, single point]. With `O=C1C[C@@H]2OCC=C3CN4CC[C@]56c7ccccc7N1[C@H]5[C@H]2[C@H]3C[C@H]46` the “activity change, negative = inhibition” value was inactive: -3.36% [at 114 µM]. `CO[C@@]12c3c(C)cc(O)c4c(=O)occ(c34)C(=O)[C@@H]1[C@]13COC(=O)c4c(O)cc(C)c(c41)C(=O)[C@H]2[C@@H]3OC(C)=O` was tested, and the Potency was inconclusive: 13.6 µM [inhibitor, partial curve]. `C1=C2CCCN[C@H]2C2CC1[C@H]1CCCCN1C2` (stereo not given in full) was tested, and the “activity change, negative = inhibition” value was inactive: 3.07%. With `CC(C)CC1C(=O)O[C@H](C(C)C)C(=O)N(C)C(CC(C)C)C(=O)O[C@@H](C(C)C)C(=O)N(C)C(CC(C)C)C(=O)O[C@H](C(C)C)C(=O)N(C)C(CC(C)C)C(=O)O[C@@H](C(C)C)C(=O)N1C` (stereo not given in full) the Potency was inconclusive: 19.3 µM [inhibitor, partial curve, poor fit]. In the case of `C/C(=C\[C@H](C)C(=O)C[C@H](O)CC1CC(=O)NC(=O)C1)[C@@H]1OC(=O)/C=C/CC/C=C/C=C/[C@@H]1C`, the Potency is reported as inconclusive: 24.3 µM [inhibitor, partial curve, poor fit]. For `COC1C(O)C(C)OC(OC2C(Oc3cccc4c(O)c5c(=O)oc6ccc(C)c7c(=O)oc(c34)c5c67)OC(C)C(O)C2O)C1O` (stereo not given), the Potency was inconclusive: 13.6 µM [inhibitor, partial curve].
